# In all, about 390,000 compounds went through this assay and about 4,000 (1%) were called active. Inconclusive means that the source gave no clear call. Such entries were picked first, then a sample of the others. Calls come from the whole dose curve; as a rule, active = well fitted inhibition curve with a large enough effect; inconclusive = small, poorly fitted or top-dose-only effect, or another doubt; inactive = no such curve, though single readings can be large or run the other way. Where the call is inconclusive, the potency comes from a doubtful curve fit.
# The chains behind the UniProt entries cited, without tags or fusion partners. Where a name states a change or a piece, a line headed by the entry shows the natural chain unless it says otherwise.
# UniProt Q9UNA4: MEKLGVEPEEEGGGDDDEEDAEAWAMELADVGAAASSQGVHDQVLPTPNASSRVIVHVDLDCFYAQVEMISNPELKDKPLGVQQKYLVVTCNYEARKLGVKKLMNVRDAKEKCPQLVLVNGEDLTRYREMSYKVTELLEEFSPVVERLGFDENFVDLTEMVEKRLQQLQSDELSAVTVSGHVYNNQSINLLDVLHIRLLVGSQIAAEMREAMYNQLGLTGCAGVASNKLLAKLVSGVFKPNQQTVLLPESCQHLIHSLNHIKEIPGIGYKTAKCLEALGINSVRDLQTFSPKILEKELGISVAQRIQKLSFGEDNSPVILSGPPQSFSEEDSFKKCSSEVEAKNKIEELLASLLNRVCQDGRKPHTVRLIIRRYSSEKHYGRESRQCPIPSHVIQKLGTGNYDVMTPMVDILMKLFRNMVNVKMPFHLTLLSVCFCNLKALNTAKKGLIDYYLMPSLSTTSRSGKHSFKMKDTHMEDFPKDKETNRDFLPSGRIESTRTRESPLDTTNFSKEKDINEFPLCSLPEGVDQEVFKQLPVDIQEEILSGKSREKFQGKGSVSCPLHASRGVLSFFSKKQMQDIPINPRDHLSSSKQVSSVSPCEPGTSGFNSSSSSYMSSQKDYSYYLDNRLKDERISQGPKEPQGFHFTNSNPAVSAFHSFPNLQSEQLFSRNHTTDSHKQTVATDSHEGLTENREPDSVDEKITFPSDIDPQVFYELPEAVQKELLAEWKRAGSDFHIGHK
# Target: DNA polymerase iota (Homo sapiens) (UniProt Q9UNA4)
# Experiment: qHTS for Inhibitors of Polymerase Iota
# Conditions: Pol iota fluorescent replication assay, 10 min; series mostly up to 115 µM
# Outline: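 Fluorescent replication assay read twice, at 0 min and 10 min after adding 50 nM (final) substrate. Enzyme (10 nM) and compounds were first incubated 15 min at room temperature; enzyme-free buffer wells were negative controls.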
# Potency is the fitted concentration of half-maximal effect.
row,SMILES,Potency
1,CC1CCN(C2=C(NS(=O)(=O)c3ccccc3)C(=O)c3ccccc3C2=O)CC1,"inconclusive: 25.1 µM [inhibitor, single point]"
2,COc1cc(/C=C/c2nc(C#N)c(N3CCC(C)CC3)o2)cc(OC)c1OC,inactive
3,O=C(O)c1ccc(NC2=C/C(=N/S(=O)(=O)c3ccccc3)c3ccccc3C2=O)cc1,"inconclusive: 6.31 µM [inhibitor, full curve, poor fit]"
4,NC(=O)CN1N=C(c2cc(Cl)sc2Cl)CSC1=O,"inconclusive: 22.4 µM [inhibitor, single point]"
5,C#CCOCCOCCOCCNc1nc(N2CCN(C(=O)[C@H](CCC(=O)O)n3cc(C(N)Cc4ccc(O)cc4)nn3)CC2)nc(N2CCN(C(=O)[C@H](Cc3cc4ccccc4[nH]3)n3cc(C(N)[C@H](C)CC)nn3)CC2)n1 (some centres not stated),inactive
6,CCOc1ccc(NS(=O)(=O)c2ccc3[nH]cc(C(=O)NCC4CCCO4)c(=O)c3c2)cc1 (configuration not stated),"inconclusive: 3.55 µM [inhibitor, partial curve, poor fit]"
7,CN(CC(=O)Nc1cccc(F)c1)C(=O)c1ccccc1-n1cnnn1,"inconclusive: 79.4 µM [inhibitor, partial curve, poor fit]"
8,Nc1ccc(C(=O)O)c(O)c1,inactive
9,COc1cccc(NC(=O)CCc2nnc3ccc(N4CCN(c5cccc(OC)c5)CC4)nn23)c1,"inconclusive: 39.8 µM [inhibitor, partial curve, poor fit]"
10,CCc1cccc(NC(=O)CN(C)S(=O)(=O)c2cccc3cccnc23)c1,"inconclusive: 79.4 µM [inhibitor, single point]"
11,CCN(c1ccc2c(c1)OCO2)S(=O)(=O)c1cc(Br)cc2c1N(C(C)=O)CC2,"inconclusive: 39.8 µM [inhibitor, single point]"
12,O=C(N/N=C\C=C\c1ccc2c(c1)OCO2)C1COc2cc3ccccc3cc2O1 (configuration not stated),"inconclusive: 3.16 µM [inhibitor, partial curve, poor fit]"
13,CSc1ccc(CCNc2ncnc3onc(-c4ccc(Cl)cc4)c23)cc1,inactive
14,COc1cccc(/C=C2/SC(=S)N(CC(=O)Nc3nnc(C)s3)C2=O)c1,"inconclusive: 14.1 µM [inhibitor, partial curve, poor fit]"
15,O=C(Nc1cccc(S(=O)(=O)NCc2ccco2)c1)c1cc(-c2ccccc2)nc2ccccc12,"inconclusive: 39.8 µM [inhibitor, single point]"
16,Cc1cc(C)n2nc(C(=O)Nc3ccc4c(c3)OCO4)nc2n1,"inconclusive: 12.6 µM [inhibitor, full curve]"
17,Oc1ccc2ccccc2c1/C=N/c1nc2c(s1)CCCC2,"inconclusive: 17.8 µM [inhibitor, partial curve, poor fit]"
18,COc1ccc2[nH]c(-c3ccc(C)cc3)cc(=O)c2c1,"inconclusive: 44.7 µM [inhibitor, partial curve]"
19,Cc1ccn2c(Nc3ccc4c(c3)OCO4)c(-c3ccccn3)nc2c1,"inconclusive: 31.6 µM [inhibitor, single point]"
20,CCOC(=O)CSc1nc2sc(C)c(C)c2c(=O)n1C,inactive
21,O=C(CSc1nnc([C@@H]2CCCN2)o1)c1ccc(Cl)cc1,"inconclusive: 4.47 µM [inhibitor, full curve, poor fit]"

# 4 compounds from above, ordered by molecular weight, ascending:
row,SMILES,Potency
17,Oc1ccc2ccccc2c1/C=N/c1nc2c(s1)CCCC2,"inconclusive: 17.8 µM [inhibitor, partial curve, poor fit]"
7,CN(CC(=O)Nc1cccc(F)c1)C(=O)c1ccccc1-n1cnnn1,"inconclusive: 79.4 µM [inhibitor, partial curve, poor fit]"
6,CCOc1ccc(NS(=O)(=O)c2ccc3[nH]cc(C(=O)NCC4CCCO4)c(=O)c3c2)cc1 (configuration not stated),"inconclusive: 3.55 µM [inhibitor, partial curve, poor fit]"
5,C#CCOCCOCCOCCNc1nc(N2CCN(C(=O)[C@H](CCC(=O)O)n3cc(C(N)Cc4ccc(O)cc4)nn3)CC2)nc(N2CCN(C(=O)[C@H](Cc3cc4ccccc4[nH]3)n3cc(C(N)[C@H](C)CC)nn3)CC2)n1 (some centres not stated),inactive

# (more compounds)

row,SMILES,Potency
1,Cc1ccc(NC(=O)C(C)OC(=O)/C=C/c2ccccc2)cc1S(=O)(=O)N1CCOCC1 (configuration not stated),"inconclusive: 12.6 µM [inhibitor, partial curve, poor fit]"
2,COc1ccc(C(=O)c2sc(Nc3cc(Cl)ccc3C)nc2N)cc1OC,"inconclusive: 70.8 µM [inhibitor, partial curve, poor fit]"
3,O=C(Nc1cccc(C(=O)O)c1)/C(=C\c1ccc2c(c1)OCO2)NC(=O)c1ccccc1Cl,"inconclusive: 50.1 µM [inhibitor, partial curve]"
4,Cc1ccsc1C1Nc2ccc3ncccc3c2C2=C1C(=O)CC(C)(C)C2 (configuration not stated),"inconclusive: 79.4 µM [inhibitor, partial curve, poor fit]"
5,COC(=O)c1cc2occc2n1Cc1nc(-c2cccc(Br)c2)oc1C,inactive
6,Oc1ccc2oc3c(c2c1C=NCc1ccncc1)CCCC3,"inconclusive: 20 µM [inhibitor, partial curve, poor fit]"
7,O=C(NCCc1ccc(O)c(O)c1)C1COc2ccccc2O1 (configuration not stated),"inconclusive: 89.1 µM [inhibitor, partial curve, poor fit]"
8,Cc1ccc(SCc2ccc(C(=O)Nc3cccc([N+](=O)[O-])c3)cc2)cc1,"inconclusive: 79.4 µM [inhibitor, partial curve, poor fit]"
9,CC(C)Cn1c(SCC(=O)NC2CCCc3ccccc32)nc(O)cc1=O (configuration not stated),"inconclusive: 39.8 µM [inhibitor, partial curve, poor fit]"
10,Cc1c(CCO)sc[n+]1CC(=O)c1ccccc1,"inconclusive: 89.1 µM [inhibitor, single point]"
11,O=C(O)c1ccc2c(ccc3nn(-c4ccc(/C=C/c5ccc(-n6nc7ccc8cc(C(=O)O)ccc8c7n6)cc5[S+](=O)([O-])[O-])c([S+](=O)([O-])[O-])c4)nc32)c1,"inconclusive: 3.16 µM [inhibitor, full curve, poor fit]"
12,O=C1NN(c2ccc(Br)cc2)C(=O)/C1=C\c1ccc(O)cc1O,"inconclusive: 35.5 µM [inhibitor, partial curve, poor fit]"
13,COc1ccc(Oc2nc3c(C)cccn3c(=O)c2/C=C(\C#N)c2nc3ccccc3[nH]2)cc1,"inconclusive: 4.47 µM [inhibitor, full curve, poor fit]"
14,COc1ccc2[nH]c(=O)c(CN(C(=O)c3cccnc3)c3ccc(C)cc3C)cc2c1,"inconclusive: 89.1 µM [inhibitor, single point]"
15,NC(=O)CC[C@@H]1NC(=O)[C@H](Cc2ccc(O)cc2)NC(=O)c2cc([N+](=O)[O-])cc(F)c2OCC[C@@H](C(N)=O)NC1=O,"inconclusive: 22.4 µM [inhibitor, partial curve, poor fit]"
16,Cc1ccccc1CNCCSc1nnnn1-c1ccccc1,"inconclusive: 79.4 µM [inhibitor, partial curve, poor fit]"
17,O=C(Nc1ccc2nc3n(c(=O)c2c1)CCCCC3)C(=O)N1CCN(c2ccc(F)cc2)CC1,"inconclusive: 89.1 µM [inhibitor, partial curve, poor fit]"
18,CC(C)Nc1nc(NC(C)C)nc(Nn2cnnc2)n1,inactive
19,Cc1ccc2nc3c(cc(C#N)c(=O)n3-c3nccs3)c(=O)n2c1,"inconclusive: 25.1 µM [inhibitor, partial curve, poor fit]"
20,COc1ccc(CNC(=O)CCc2c(C)c3cc4c(C)coc4cc3oc2=O)cc1,"inconclusive: 79.4 µM [inhibitor, partial curve]"
21,O=C(c1cccs1)N1CCCC(c2nc3c(nnn3Cc3cccc(Cl)c3)c(=O)[nH]2)C1 (configuration not stated),inactive

row,SMILES,Potency
1,CC(=O)C1=C(O)C(=O)OC1c1ccc(Cl)cc1 (configuration not stated),"inconclusive: 20 µM [inhibitor, full curve, poor fit]"
2,COc1ccc(CCN2C(=O)c3ccccc3C2(O)c2ncc[nH]2)cc1OC (configuration not stated),"inconclusive: 10 µM [inhibitor, single point]"
3,CCOC(=O)Cc1ccc(NC(=O)N2CC(C)Oc3ccc(Cl)cc32)cc1 (configuration not stated),inactive
4,O=C(CCC(=O)c1ccc(F)cc1)Nc1ccccc1Cl,"inconclusive: 89.1 µM [inhibitor, single point]"
5,CS(=O)(=O)c1ccccc1NC(=O)COc1ccccc1C(=O)Nc1ccccc1,"inconclusive: 79.4 µM [inhibitor, partial curve]"
6,Clc1ccc(Nc2nc(NCc3ccco3)nc3nccnc23)cc1,inactive
7,Cc1ccc2nc(N3CCN(c4ccccc4F)CC3)c3nnnn3c2c1,inactive
8,COc1cc(C(=O)Nc2ccccc2-c2nnn(CC(N)=O)n2)cc(OC)c1OC,inactive
9,Cc1cccc(N2C(=O)C=CC2=O)c1,inactive
10,CCOC(=O)c1ccccc1NS(=O)(=O)c1ccc(S(=O)(=O)N2CCCC2)cc1,"inconclusive: 56.2 µM [inhibitor, full curve, poor fit]"
11,O=C1CC(C(=O)NCc2ccccc2)C2(CCCC2)O1 (configuration not stated),"inconclusive: 79.4 µM [inhibitor, single point]"
12,Clc1ccccc1Nc1ncnc2c1nc1n2CCCCC1,inactive
13,COC(=O)[C@@]12CCCN1[C@H](c1ccc(SC3CCCCC3)cc1)[C@H]1C(=O)N(C)C(=O)[C@H]12,"inconclusive: 12.6 µM [inhibitor, partial curve, poor fit]"
14,CCOCCCNc1nc2cc(OC)c(OC)cc2c2nc(-c3ccccc3)nn12,inactive
15,COc1ccc(C(=O)C(CN2CCOCC2)c2ccccc2)cc1 (configuration not stated),"inconclusive: 25.1 µM [inhibitor, full curve]"
16,COc1ccc(CC(=O)NNC(=O)c2cnccn2)cc1,"inconclusive: 39.8 µM [inhibitor, single point]"
17,O=C(COc1ccccc1)N1CCN(S(=O)(=O)c2ccc(Br)cc2)CC1,"inconclusive: 39.8 µM [inhibitor, single point]"
18,COc1ccc(OC)c(NC(=O)Cc2cccs2)c1,"inconclusive: 22.4 µM [inhibitor, partial curve, poor fit]"
19,O=[N+]([O-])c1cccc(-c2nc3ccc([N+](=O)[O-])cc3[nH]2)c1,inactive
20,CCOC(=O)c1cc(C)n(CCc2ccccc2)c1C,"inconclusive: 39.8 µM [inhibitor, single point]"

# Reference: PubChem BioAssay AID588590 (National Center for Advancing Translational Sciences (NCATS), 2011)
